Test results published in PMC8998810.
Results are given in words; binding and its absence hold for the method and conditions named. In cells and extracts the contact can be indirect. Some binding calls cover weakened binding; strength is not graded here. Where a sequence is shown, tags or fusion partners need not be part of it.

T1: RIN4-YC (full-length RPM1-interacting protein 4 fused with the C-terminus of YFP) (Arabidopsis) (UniProt Q8GYN5)
T1 sequence: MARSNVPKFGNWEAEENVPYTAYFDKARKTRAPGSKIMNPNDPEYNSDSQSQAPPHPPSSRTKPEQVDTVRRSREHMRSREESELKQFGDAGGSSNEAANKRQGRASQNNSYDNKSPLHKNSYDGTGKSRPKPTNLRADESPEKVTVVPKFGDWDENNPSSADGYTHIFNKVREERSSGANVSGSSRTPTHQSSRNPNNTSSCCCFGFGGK

T2: Cluc-RIN4 (full-length RIN4 fused with the C-terminus of luciferase) (Arabidopsis) (UniProt Q8GYN5)
T2 sequence: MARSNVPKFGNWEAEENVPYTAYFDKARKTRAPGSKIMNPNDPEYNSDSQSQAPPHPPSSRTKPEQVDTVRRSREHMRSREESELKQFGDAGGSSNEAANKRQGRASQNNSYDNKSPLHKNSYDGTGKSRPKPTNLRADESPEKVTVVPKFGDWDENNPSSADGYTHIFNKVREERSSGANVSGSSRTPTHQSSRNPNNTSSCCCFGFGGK

B1: YN-AHA5 (full-length PM H+-ATPase AHA5 fused with the N-terminus of YFP) (protein, UniProt Q9SJB3 1-949)
chain: MSELDHIKNESVDLVRIPMEEVFEELKCTKQGLTANEASHRLDVFGPNKLEEKKESKLLKFLGFMWNPLSWVMEVAALMAIALANGGGRPPDWQDFVGIVCLLLINSTISFIEENNAGNAAAALMAGLAPKTKVLRDNQWSEQEASILVPGDVISIKLGDIIPADARLLDGDPLKIDQSSLTGESIPVTKNPSDEVFSGSICKQGEIEAIVIATGVHTFFGKAAHLVDNTNQIGHFQKVLTSIGNFCICSIALGIIVELLVMYPIQRRRYRDGIDNLLVLLIGGIPIAMPSVLSVTMATGSHRLFQQGAITKRMTAIEEMAGMDVLCCDKTGTLTLNKLTVDKNLVEVFAKGVGKEHVFLLAARASRIENQDAIDAAIVGMLADPKEARAGVREVHFFPFNPVDKRTALTYVDSDGNWHRASKGAPEQILNLCNCKEDVRRKVHGVIDKFAERGLRSLAVARQEVLEKKKDAPGGPWQLVGLLPLFDPPRHDSAETIRRALNLGVNVKMITGDQLAIGKETGRRLGMGTNMYPSSALLGQVKDSSLGALPVDELIEKADGFAGVFPEHKYEIVHRLQQRNHICGMTGDGVNDAPALKKADIGIAVVDATDAARGASDIVLTEPGLSVIISAVLTSRAIFQRMKNYTIYAVSITIRIVFGFMFIALIWQFDFSPFMVLIIAILNDGTIMTISKDRMKPSPQPDSWKLRDIFSTGVVLGGYQALMTVVFFWVMKDSDFFSNYFGVRPLSQRPEQMMAALYLQVSIISQALIFVTRSRSWSYAECPGLLLLGAFVIAQLVATFIAVYANWSFARIEGAGWGWAGVIWLYSFLTYIPLDLLKFGIRYVLSGKAWLNLLENKTAFTTKKDYGKEEREAQWAAAQRTLHGLQPAEKNNIFNEKNSYSELSQIAEQAKRRAEVVRLREINTLKGHVESVVKLKGLDIDTIQQHYTV
B2: Nluc-AHA5 (full-length AHA5 fused with the N-terminus of luciferase) (protein, UniProt Q9SJB3 1-949)
chain: MSELDHIKNESVDLVRIPMEEVFEELKCTKQGLTANEASHRLDVFGPNKLEEKKESKLLKFLGFMWNPLSWVMEVAALMAIALANGGGRPPDWQDFVGIVCLLLINSTISFIEENNAGNAAAALMAGLAPKTKVLRDNQWSEQEASILVPGDVISIKLGDIIPADARLLDGDPLKIDQSSLTGESIPVTKNPSDEVFSGSICKQGEIEAIVIATGVHTFFGKAAHLVDNTNQIGHFQKVLTSIGNFCICSIALGIIVELLVMYPIQRRRYRDGIDNLLVLLIGGIPIAMPSVLSVTMATGSHRLFQQGAITKRMTAIEEMAGMDVLCCDKTGTLTLNKLTVDKNLVEVFAKGVGKEHVFLLAARASRIENQDAIDAAIVGMLADPKEARAGVREVHFFPFNPVDKRTALTYVDSDGNWHRASKGAPEQILNLCNCKEDVRRKVHGVIDKFAERGLRSLAVARQEVLEKKKDAPGGPWQLVGLLPLFDPPRHDSAETIRRALNLGVNVKMITGDQLAIGKETGRRLGMGTNMYPSSALLGQVKDSSLGALPVDELIEKADGFAGVFPEHKYEIVHRLQQRNHICGMTGDGVNDAPALKKADIGIAVVDATDAARGASDIVLTEPGLSVIISAVLTSRAIFQRMKNYTIYAVSITIRIVFGFMFIALIWQFDFSPFMVLIIAILNDGTIMTISKDRMKPSPQPDSWKLRDIFSTGVVLGGYQALMTVVFFWVMKDSDFFSNYFGVRPLSQRPEQMMAALYLQVSIISQALIFVTRSRSWSYAECPGLLLLGAFVIAQLVATFIAVYANWSFARIEGAGWGWAGVIWLYSFLTYIPLDLLKFGIRYVLSGKAWLNLLENKTAFTTKKDYGKEEREAQWAAAQRTLHGLQPAEKNNIFNEKNSYSELSQIAEQAKRRAEVVRLREINTLKGHVESVVKLKGLDIDTIQQHYTV

What was measured:
[1] = biological target: T1, RIN4-YC (full-length RPM1-interacting protein 4 fused with the C-terminus of YFP) (Arabidopsis); test: split reporter; BiFC with split YFP; YN-AHAs and RIN4-YC co-infiltrated by Agrobacterium into N. benthamiana leaves; fluorescence checked at 3 dpi; empty YN as negative control
[2] = biological target: T2, Cluc-RIN4 (full-length RIN4 fused with the C-terminus of luciferase) (Arabidopsis); test: split reporter; luciferase complementation imaging (LCI); Nluc-AHA1/5 and Cluc-RIN4 co-infiltrated by Agrobacterium into N. benthamiana leaves; 1 mM luciferin, imaged at 3 dpi; empty Cluc as negative control

Row | Binder | binding [1] | binding [2]
1 | B1 | binds | 
2 | B2 |  | binds
